The subject of data set [1] is T1, β-glucosidase from Almonds.
T1 construct: gene almond beta-glucosidase
Kind of data set: p-nitrophenyl glycoside hydrolysis, A405, […] min. The conditions noted are these: 5000 µM; inhibition; 1 mM p-nitrophenyl beta-D-glucopyranoside, 20 mM Na2HPO4 pH 7.3, 37 °C. It is filed as biochemical, Prunus dulcis.

For data set [2], the system named is β-mannosidase from Helix pomatia. As to the kind of experiment: p-nitrophenyl glycoside hydrolysis, A405, […] min. The note with it: 5000 µM; activation; 1 mM p-nitrophenyl beta-D-mannopyranoside, 20 mM NaH2PO4 pH 5.5, 37 °C. It is filed as biochemical.

β-Glc and β-Man data for four compounds are collected here from publication PMC7828477, “Synthesis and Evaluation of Novel Iminosugars Prepared from Natural Amino Acids” (Molecules, 2021).

Structures can show the parent of a compound that is named as a salt.

Regarding `C[C@@H]1NC[C@H]2[C@@H](CO)[C@H]2[C@H]1O` [6c, (1S,4S,5R,6S,7R)-7-(hydroxymethyl)-4-methyl-3-azabicyclo[4.1.0]heptan-5-ol], the β-Glc in data set [1] came to 43%.
Take `O=C(O)[C@H]1[C@@H]2CN[C@@H](CO)[C@@H](O)[C@@H]21` [10a, (1R,4S,5S,6S,7S)-7-carboxy-5-hydroxy-4-(hydroxymethyl)-3-azabicyclo[4.1.0]heptan-3-ium trifluoroacetate]: the β-Man in data set [2] is listed as 155%.
In data set [1], `O=C(O)[C@@H]1[C@@H]2CN[C@@H](CO)[C@@H](O)[C@@H]21` [10b, (1R,4S,5S,6S,7R)-7-carboxy-5-hydroxy-4-(hydroxymethyl)-3-azabicyclo[4.1.0]heptan-3-ium trifluoroacetate] yielded a β-Glc of 39%.
`C[C@@H]1NC[C@H]2[C@H](CO)[C@H]2[C@H]1O` [6b, (1S,4S,5R,6S,7S)-7-(hydroxymethyl)-4-methyl-3-azabicyclo[4.1.0]heptan-5-ol] returned a β-Man in data set [2] of 148%.
